Experimental findings from PubChem BioAssay AID2685 (National Center for Advancing Translational Sciences (NCATS), 2010) are described below.

The nature of this test: qHTS Assay for Lipid Storage Modulators in Drosophila S3 Cells.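 As to cell number change: cells counted by Cell Tracker Red CMTPX staining in the red channel.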 To be noted: BODIPY lipid droplet fluorescence, 18-24 h; for cell number change: measured here: cell count max response, cells fed with added oleic acid. Put shortly: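 Laser-scanning cytometry quantifies lipid droplet accumulation (500–530 nm total intensity; droplet/cell object ratio) in oleic acid-fed (400 uM added) Drosophila S3 cells treated with a concentration series. 20 uM Triacsin C defined 100% inhibition.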
On the technique in general: qHTS replaces the single test concentration by a dilution series.

The mark [1] stands for this setting: measured here: cell number channel AC50, cells fed with added oleic acid.
Setting [2] is: measured here: lipid fluorescence (Fed channel) AC50, cells fed with added oleic acid.

Molecules are shown by their SMILES. This is one part of the list. Shown are side measurements of this screen, not its main read-out; they come without a call. Most of these compounds were active or inconclusive in the main read-out, so they are no random draw. Words in brackets tell the shape of the fitted curve; partial curves, single points and poor fits give uncertain potencies.

The AC50 is the concentration giving half of the maximal activity seen. Read a low AC50 as activity at low concentration. On to `O=C(Nc1ccc(Cl)cc1)N1CCCN(Cc2ccccc2F)C1`, for which the cell number change is 15.3%. Under setting [1], the AC50 is 731 nM [falling, full curve, poor fit]. The AC50 under setting [2] is 731 nM [falling, full curve].

Take `COc1cccc(NC(=O)CN(C)S(=O)(=O)/C=C/c2ccccc2)c1`: the cell number change came to 5.83%. The AC50 under setting [1] is 820 nM [falling, full curve]. The half-maximal activity concentration (AC50) under setting [2] is 1640 nM [rising, partial curve, poor fit].

Take `CC(=O)Nc1ccc(NC(=O)CS(=O)(=O)Cc2ccccc2)cc1`: the cell number change was determined as 15.1%. For the same compound, the AC50 under setting [2] was 29100 nM [falling, single point].

In the case of `CCN(CC(=O)NCc1ccc(Cl)cc1)C(=O)C1CCN(S(=O)(=O)c2ccc(OC)c(OC)c2)CC1`, the AC50 under setting [2] was 4610 nM [falling, single point].

As for `COc1ccc(C(=O)Nc2ccc(S(=O)(=O)Nc3onc(C)c3C)cc2)cc1`, the AC50 under setting [1] is 6510 nM [falling, single point].

As to `COC(=O)COc1nsnc1N1CCOCC1`, under setting [2], the half-maximal activity concentration (AC50) is 2910 nM [falling, full curve].

As to `COC(C[C@H](O)C[C@@H](O)[C@H](C)OCc1ccccc1)OC`, the cell number change is 0.327%. The AC50 under setting [2] is 13 nM [falling, full curve, poor fit].

Take `Cc1nc2scc(-c3ccc(Cl)cc3)c2c(=O)o1`: the AC50 was 1300 nM [rising, partial curve] under setting [1] and 820 nM [rising, full curve, poor fit] under setting [2].

Turning to `COC(=O)c1cc2sc(Cl)cc2n1CC(=O)Nc1cccc(SC)c1`, the cell number change is -1.78%. Also, the half-maximal activity concentration (AC50) under setting [2] is 29100 nM [falling, single point].

Regarding `NS(=O)(=O)c1cccc(NC(=O)COC(=O)Cn2cc(C(F)(F)F)ccc2=O)c1`, the cell number change was 12.2%. The AC50 under setting [2] was 32600 nM [rising, single point].

Take `CCc1ccc(NC(=O)CSc2nc3ccsc3c(=O)n2CCC(=O)O)cc1`: the cell number change is -2.09%.

Take `CS(=O)(=O)N1N=C(c2ccco2)CC1c1ccccc1Cl` (stereo unspecified): the cell number change amounted to 15.8%.

Take `O=C(COc1ccc2c(c1)oc(=O)c1ccccc12)NCC1CCC(C(=O)O)CC1` (stereo unspecified): the cell number change was -0.616%. Further, the AC50 under setting [2] was 580 nM [rising, single point].

`CC(=O)OCP(C)(=O)COC(C)=O`: the cell number change is -19.9%. Also, the AC50 under setting [2] was 5800 nM [falling, full curve].

On to `Cc1ccc(Nc2ccc(C(N)=O)cc2[N+](=O)[O-])cc1C`, for which the cell number change is -96.8%. The AC50 under setting [1] was 29100 nM [falling, single point].

On to `O=C(C1=C(O)C(=O)N(CC2CCCO2)C1c1ccc(Cl)cc1Cl)c1ccco1` (stereo unspecified), for which the cell number change came to 5.56%.

As for `Cc1cccc(N(CC(=O)N/N=C/c2ccccc2C(=O)O)S(C)(=O)=O)c1C`, the cell number change is 34.9%. The AC50 under setting [1] is 16400 nM [rising, single point]. Also, the AC50 under setting [2] is 18400 nM [rising, single point].

As to `CCn1cc(C(=O)NC2CCCCC2)c(=O)c2cc(S(=O)(=O)N(C)C)ccc21`, the cell number change is -17.3%. Also, the AC50 under setting [2] is 6510 nM [falling, single point].

Regarding `CCOC(=O)C(C)Sc1nc2ccccc2c(=O)n1CC` (stereo unspecified), the cell number change was -8.98%. Further, the half-maximal activity concentration (AC50) under setting [2] is 731 nM [falling, full curve].

As for `CC(C)(C)CC(=O)Nc1nnc(-c2cccs2)s1`, the cell number change was determined as 14%. Also, the AC50 under setting [1] was 3660 nM [rising, single point].

For `O=C(c1cccs1)N1CCN(C(=O)c2ccco2)c2ccccc2C1`, the cell number change came to 18.5%. For the same compound, under setting [2], the AC50 is 16400 nM [rising, single point].

On to `CN1C(=O)/C(=C/c2ccccc2Cl)Sc2ccc(C(=O)N3CCCC3)cc21`, for which the cell number change was -19.8%.

Regarding `Cc1[nH]c(=O)[nH]c(=O)c1S(=O)(=O)N1CCN(c2ccccc2F)CC1`, the cell number change was -31.3%. Further, the AC50 under setting [1] is 3660 nM [falling, full curve]. Further, under setting [2], the AC50 was 164 nM [falling, full curve].

With `Cc1cc(C)cc(Nc2nc3c(S(=O)(=O)c4ccccc4)nnn3c3ccccc23)c1`, under setting [2], the AC50 is 731 nM [rising, single point].

In the case of `COc1cccc(C2c3[nH]c4ccccc4c3C[C@H]3C(=O)N(c4ccccc4C(=O)N4CCC[C@H]4C(=O)O)C(=O)N23)c1` (stereo partly specified), the cell number change was 6.98%. In addition, under setting [2], the AC50 is 29100 nM [rising, single point].

With `CCn1cc(C(=O)NCCCN(C)c2ccccc2)c(=O)c2cc(S(=O)(=O)N(C)C)ccc21`, the cell number change was -17.9%. Besides, the concentration at half-maximal activity (AC50) under setting [2] is 23100 nM [falling, single point].

In the case of `COc1ccc(OC)c(NS(=O)(=O)c2ccc(NC(=O)C3COc4ccccc4O3)cc2)c1` (stereo unspecified), the cell number change was -2.79%. The AC50 under setting [1] was 580 nM [rising, full curve, poor fit]. The AC50 under setting [2] was 116 nM [rising, full curve, poor fit].

Take `CCOc1ccc(NC(=O)c2c(NC(=O)CN3CCN(C)CC3)sc3c2CCC3)cc1`: the cell number change came to 5.82%. The AC50 under setting [2] was 116 nM [rising, full curve, poor fit].

On to `COc1ccc(NC(=O)COC(=O)CNS(=O)(=O)c2ccccc2)cc1OC`, for which the cell number change is -22.7%.

In the case of `O=C(Nc1sc2c(c1C(=O)NCc1cccnc1)CCCC2)c1ccco1`, the AC50 was 1460 nM [rising, partial curve] under setting [1] and 1640 nM [rising, partial curve] under setting [2].

For `CC(C)(C)NS(=O)(=O)c1ccc(NC(=O)C(Sc2ccccc2)c2ccccc2)cc1` (stereo unspecified), the cell number change is -14.4%.

Consider `O=C(CSc1nccc(=O)[nH]1)NC1CCCC1`, for which the cell number change was -3.85%. Besides, under setting [2], the concentration at half-maximal activity (AC50) was 116 nM [falling, single point].

For the compound `Cc1ccc(N=c2c([N+](=O)[O-])nn(-c3ccc4c(c3)OCCO4)n2O)cc1F`, the cell number change turned out to be 49.7%. Besides, the AC50 under setting [1] was 366 nM [rising, full curve].

For `O=C(CNC(=O)c1ccccc1Cl)N/N=C/c1ccc([N+](=O)[O-])s1`, the cell number change was -21.2%. For the same compound, the AC50 under setting [2] is 20600 nM [falling, single point].

Regarding `COc1ccc(S(=O)(=O)NCC(=O)N(CC(=O)NCC2CCCO2)Cc2ccc(F)cc2)cc1` (stereo unspecified), the cell number change came out at 17.4%.

As to `O=C(O)CC/C(=N/NC(=O)CNC(=O)Cc1ccc(Cl)cc1)c1ccccc1`, the cell number change was determined as 20.8%. The AC50 under setting [2] is 13000 nM [rising, partial curve].

Turning to `COc1ccc(/C(O)=C/C(=O)C(=O)NNC(=O)C(O)(c2ccccc2)c2ccccc2)cc1`, the cell number change was determined as 21.4%. In addition, the AC50 under setting [2] was 231 nM [falling, full curve, poor fit].

Regarding `Cc1ccc(S(=O)(=O)/N=C(\Sc2ccccc2)c2ccccc2)cc1`, the cell number change is -8.17%. The half-maximal activity concentration (AC50) under setting [1] is 4110 nM [rising, single point]. Under setting [2], the AC50 is 6510 nM [rising, partial curve].
